Protein sequences, listed by entry. Tags and fused reporters are not part of them. Residues count along the entry.
UniProt P62942, whole entry: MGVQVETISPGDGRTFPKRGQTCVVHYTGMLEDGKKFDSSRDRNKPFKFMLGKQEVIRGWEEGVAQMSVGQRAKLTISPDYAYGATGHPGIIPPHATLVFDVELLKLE
UniProt Q13451, 42-130 limits assumed: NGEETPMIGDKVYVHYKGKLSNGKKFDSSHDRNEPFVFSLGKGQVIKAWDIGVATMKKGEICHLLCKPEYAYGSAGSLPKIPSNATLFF
UniProt Q02790, 50-138 limits assumed: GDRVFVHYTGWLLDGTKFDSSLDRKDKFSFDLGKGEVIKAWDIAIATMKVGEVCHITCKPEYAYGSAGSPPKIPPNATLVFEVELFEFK

According to US9371322B2, “Bicyclic aza-amides for treatment of psychiatric disorders” (MAX-PLANCK-GESELLSCHAFT ZUR FÖRDERUNG DER WISSENSCHAFTEN …, priority 2012, dated 2016):

Columns and labels:
[1] = target: FKBP12 (Homo sapiens, UniProt P62942); assay: Competitive fluorescence polarization assay, binding to FKBP12
[2] = target: FKBP51 (Homo sapiens, UniProt Q13451); assay: Competitive fluorescence polarization assay, binding to FKBP51; conditions: read-out: FKBP51 Ki, FKBP51FK1, fluorescent tracer 20 nM final, 30 min room temperature
[3] = target: FKBP52 (Homo sapiens, UniProt Q02790); assay: Competitive fluorescence polarization assay, binding to FKBP52; conditions: read-out: FKBP52 Ki, FKBP52FK1, fluorescent tracer 20 nM final, 30 min room temperature

CCC(C)(C)C(=O)C(=O)N1CCCC[C@H]1C(=O)OCCOc1ccc(OC)c(OC)c1
FKBP12 ligand efficiency (LE) ([1]; LE=(ΔG)/N, ΔG=−RTlnKi, RT=0.6, N non-hydrogen atoms): 0.27 | pKi ([1]; read-out: FKBP12 Ki, fluorescence polarization, fluorescent tracer 20 nM final, 30 min room temperature): 6.05 | pKi [2]: < 4.00 | pKi [3]: < 4.00

pKi: −log10 of the molar value. The structures given here were assigned with low confidence; some may be wrong.
